The exact form of at least one protein or probe is not confirmed. Weaker means in comparison with the reference protein, sequence or condition of that experiment.
Tests used:
MBP-HEY1 [1] = biological target: MBP-HEY1 (UniProt Q9Y5J3); experiment: competition with a labelled probe; settings: 5-, 15-, 50-fold excess, 20 mM Tris pH 7.6, 100 mM KCl, 0.5 mM EDTA, 0.1% Nonidet P-40, 1 mM MgCl2, 1 mM DTT, 1 ng MBP-HEY1, 1 ug poly-dAdT, 5 ng probe in 10 ul, 30 min on ice, recombinant protein, protein details: MBP
MBP-HEY1 [2] = biological target: MBP-HEY1 (UniProt Q9Y5J3); experiment: EMSA; settings: 20 mM Tris pH 7.6, 100 mM KCl, 0.5 mM EDTA, 0.1% Nonidet P-40, 1 mM MgCl2, 1 mM DTT, 10% glycerol, 1 ng MBP-HEY1, 1 ug poly-dAdT, 5 ng probe in 10 ul, 30 min on ice, recombinant protein, protein details: MBP
[3] = own binding easily competed by excess CACGTG

Chains of the proteins cited; added tags and fusions are not shown. Lines headed by an entry give the natural chain unless they say otherwise; changes in a name come on top.
UniProt Q9Y5J3: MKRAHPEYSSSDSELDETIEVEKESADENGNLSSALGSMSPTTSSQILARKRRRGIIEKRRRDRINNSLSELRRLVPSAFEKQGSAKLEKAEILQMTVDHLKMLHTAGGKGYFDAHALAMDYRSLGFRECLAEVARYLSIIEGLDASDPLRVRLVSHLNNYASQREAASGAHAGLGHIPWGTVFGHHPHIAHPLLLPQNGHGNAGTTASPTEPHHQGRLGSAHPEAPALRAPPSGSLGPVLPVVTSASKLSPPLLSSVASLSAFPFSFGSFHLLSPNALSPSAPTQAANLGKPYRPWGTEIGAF

| Sequence | binding result (MBP-HEY1 [1]; unlabeled competitor vs biotin-CACGTG, least effective, 10% glycerol) | binding result (MBP-HEY1 [2]; [3]) | binding result (MBP-HEY1 [1]; unlabeled self competitor, efficient, 10% …) | binding result (MBP-HEY1 [2]; 1 mM Mg2+, poly-dAdT) | binding result (MBP-HEY1 [1]; unlabeled competitor vs biotin-CACGTG, much poorer competitor, 10% glycerol) |
| --- | --- | --- | --- | --- | --- |
| GTGTTATGGCGCGCGCCATACTG / GCAGTATGGCGCGCGCCATAACA [ChIP-Ebox CGCGCG] | binds more weakly | binds more weakly | – | – | – |
| GTGTTATGGCACGTGCCATACTG / GCAGTATGGCACGTGCCATAACA [ChIP-Ebox CACGTG] | – | – | binds | binds | – |
| GTGTTATGGCACGCGCCATACTG / GCAGTATGGCGCGTGCCATAACA [ChIP-Ebox CACGCG] | – | binds more weakly | – | – | binds more weakly |

From publication PMC3355086
